For two molecules, binding results are on record in doi:10.1101/755504 (bioRxiv, 2019).

Protein sequences, listed by entry. Tags and fused reporters are not part of them. Lines headed by an entry give the natural chain unless they say otherwise; changes in a name come on top.
UniProt Q4V3C8: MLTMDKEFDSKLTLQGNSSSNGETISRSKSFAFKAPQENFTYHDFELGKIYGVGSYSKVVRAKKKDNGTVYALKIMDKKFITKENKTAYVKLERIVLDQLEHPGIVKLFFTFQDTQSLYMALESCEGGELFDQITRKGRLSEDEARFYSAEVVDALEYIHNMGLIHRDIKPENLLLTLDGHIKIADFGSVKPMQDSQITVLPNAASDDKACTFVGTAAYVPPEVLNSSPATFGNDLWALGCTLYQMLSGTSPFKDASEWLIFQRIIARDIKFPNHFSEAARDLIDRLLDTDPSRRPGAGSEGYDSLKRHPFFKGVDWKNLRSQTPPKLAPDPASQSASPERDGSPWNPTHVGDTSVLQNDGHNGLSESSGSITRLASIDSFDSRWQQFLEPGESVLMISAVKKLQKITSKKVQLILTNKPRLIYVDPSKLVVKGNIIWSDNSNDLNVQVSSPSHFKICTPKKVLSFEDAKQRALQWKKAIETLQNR

Assay [1] concerns the target T1, YFP-D6PK (D6 PROTEIN KINASE) (Arabidopsis thaliana) (UniProt Q9FG74).
T1 sequence: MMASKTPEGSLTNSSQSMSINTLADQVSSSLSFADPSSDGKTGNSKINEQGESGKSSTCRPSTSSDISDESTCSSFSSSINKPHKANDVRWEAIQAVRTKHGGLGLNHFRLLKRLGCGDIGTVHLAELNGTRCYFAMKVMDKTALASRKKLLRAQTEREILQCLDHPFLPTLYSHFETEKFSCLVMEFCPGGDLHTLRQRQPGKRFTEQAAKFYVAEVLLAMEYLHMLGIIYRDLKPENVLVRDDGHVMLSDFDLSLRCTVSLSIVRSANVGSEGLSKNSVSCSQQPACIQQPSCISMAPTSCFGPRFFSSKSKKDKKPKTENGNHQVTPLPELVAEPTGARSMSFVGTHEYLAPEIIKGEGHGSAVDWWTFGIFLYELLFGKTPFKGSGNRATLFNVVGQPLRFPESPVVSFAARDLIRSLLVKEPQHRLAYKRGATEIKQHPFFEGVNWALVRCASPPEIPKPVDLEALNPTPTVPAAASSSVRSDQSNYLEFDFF
Briefly: co-IP.

In assay [2] the target is GST-PDK1.2 (Arabidopsis thaliana) (UniProt Q4V3C8). Nature of the assay: pull-down.

These are yes or no findings as the source states them, for the method shown. In cells and extracts the contact can be indirect. Binding calls can cover weak binding; strength is not graded here. Where a sequence is shown, tags or fusion partners need not be part of it.

Take “mCherry-PDK1.2 (3'-Phosphoinositide-Dependent Protein Kinase1.2) (from UniProt Q4V3C8) (enzyme)”: the binding entry in assay [1] is given as “binds”.

B1: His-D6PK (enzyme, UniProt Q9FG74 1-498)
chain: MMASKTPEGSLTNSSQSMSINTLADQVSSSLSFADPSSDGKTGNSKINEQGESGKSSTCRPSTSSDISDESTCSSFSSSINKPHKANDVRWEAIQAVRTKHGGLGLNHFRLLKRLGCGDIGTVHLAELNGTRCYFAMKVMDKTALASRKKLLRAQTEREILQCLDHPFLPTLYSHFETEKFSCLVMEFCPGGDLHTLRQRQPGKRFTEQAAKFYVAEVLLAMEYLHMLGIIYRDLKPENVLVRDDGHVMLSDFDLSLRCTVSLSIVRSANVGSEGLSKNSVSCSQQPACIQQPSCISMAPTSCFGPRFFSSKSKKDKKPKTENGNHQVTPLPELVAEPTGARSMSFVGTHEYLAPEIIKGEGHGSAVDWWTFGIFLYELLFGKTPFKGSGNRATLFNVVGQPLRFPESPVVSFAARDLIRSLLVKEPQHRLAYKRGATEIKQHPFFEGVNWALVRCASPPEIPKPVDLEALNPTPTVPAAASSSVRSDQSNYLEFDFF
As to B1, in assay [2], the binding entry is “binds”.
